{"source": "patent US20210355207A1", "about": "(ACADEMIA SINICA, published 2021)", "key": {"[1]": {"biological_target": "T1, human advillin in CSF of patients treated with oxaliplatin (human) (UniProt O75366)", "T1 sequence (looked up)": "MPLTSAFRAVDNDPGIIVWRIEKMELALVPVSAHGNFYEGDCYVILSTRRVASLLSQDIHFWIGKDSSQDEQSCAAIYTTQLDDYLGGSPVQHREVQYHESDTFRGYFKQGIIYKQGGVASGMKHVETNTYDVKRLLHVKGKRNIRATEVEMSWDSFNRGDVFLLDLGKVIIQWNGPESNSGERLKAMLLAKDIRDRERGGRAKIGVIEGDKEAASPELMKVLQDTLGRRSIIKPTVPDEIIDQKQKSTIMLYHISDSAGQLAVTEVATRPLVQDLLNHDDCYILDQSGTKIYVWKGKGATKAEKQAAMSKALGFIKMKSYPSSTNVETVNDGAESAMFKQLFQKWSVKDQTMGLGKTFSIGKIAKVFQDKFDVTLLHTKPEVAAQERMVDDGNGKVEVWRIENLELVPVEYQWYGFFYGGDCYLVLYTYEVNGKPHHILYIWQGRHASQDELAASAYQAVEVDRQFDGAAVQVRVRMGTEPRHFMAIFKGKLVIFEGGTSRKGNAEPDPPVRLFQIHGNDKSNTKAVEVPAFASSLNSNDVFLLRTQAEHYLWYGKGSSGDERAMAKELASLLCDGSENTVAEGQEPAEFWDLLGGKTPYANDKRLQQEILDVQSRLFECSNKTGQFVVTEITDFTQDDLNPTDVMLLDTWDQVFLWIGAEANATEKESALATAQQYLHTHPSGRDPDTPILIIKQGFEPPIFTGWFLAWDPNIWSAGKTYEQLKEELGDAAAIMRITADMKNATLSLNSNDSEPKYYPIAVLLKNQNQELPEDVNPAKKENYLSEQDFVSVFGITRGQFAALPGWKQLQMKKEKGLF", "test": "western blot (summing up of Example 2)"}, "[2]": {"biological_target": "T1, human advillin in CSF of patients treated with oxaliplatin (human)", "test": "western blot of human CSF samples"}}, "note": "No constants are given. Whether binding was seen depends on the method and setting. Some entries that bind do so weakly or less than the wild type."}
{"binder": "monoclonal antibody of human advillin hAvil, produced by the hybridoma YCC-S1 (antibody, V domains shown, also called mouse monoclonal anti-human advillin; anti-advillin antibody) VH: EVKLEESGGGLVQPGGSLKLSCVASGFAFSNSWMSWVRQSPEKGLEWVAEIRLKSDNYASHYAESVKGRFTISRDDSKSRLYLQMNALRAEDTGIYYCSDGTWFTYWGQGTLVTVST VL: DIVMSQSPSSLAVSVGEKVTMNCKSSQSLLYRANQKNYLAWYQQKPGQSPKLLIYWASTRESGVPDRFTGSGSGTDFTLTISSVKAEDLAVYYCQQYYSHPFTFGSGTKLKIK", "values": [{"measurement": "binding", "setting": "[1]", "value": "binds"}, {"measurement": "binding", "setting": "[2]", "value": "binds"}]}
